# Source: the supplement of paper PMC8728848
# This is one part of the list.
# How the values were obtained:
# Assay in all cases: glycan array binding signal (z-score within array); higher = stronger binding
# Settings in all cases: glycan notation: IUPAC condensed, linker removed
# [1] = target: Neu5Ac(a2-3)Gal(b1-3)GalNAc
# Procedure, shortened: (§1)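 The binding signal is a Z-score computed within each array and averaged over linkers. Arrays of the same protein sequence at different concentrations or buffers were also averaged together. Data originate from 3228 arrays in the Consortium for Functional Glycomics database, kept only where the protein sequence was available.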
# [2] = target: Neu5Ac(a2-3)Gal(b1-3)GalNAc(b1-3)Gal(a1-4)Gal(b1-4)Glc
# Procedure, shortened: as §1
# [3] = target: Neu5Ac(a2-3)Gal(b1-3)GalNAc(b1-4)Gal(b1-4)Glc
# Procedure, shortened: as §1
# [4] = target: Neu5Ac(a2-3)Gal(b1-3)GalNAc(b1-4)[Neu5Ac(a2-3)]Gal(b1-4)Glc
# Procedure, shortened: as §1
# [5] = target: Neu5Ac(a2-3)Gal(b1-3)GalNAc(b1-4)[Neu5Ac(a2-8)Neu5Ac(a2-3)]Gal(b1-4)Glc
# Procedure, shortened: as §1
# [6] = target: Neu5Ac(a2-3)Gal(b1-3)GalNAc6S
# Procedure, shortened: as §1
# [7] = target: Neu5Ac(a2-3)Gal(b1-3)GlcNAc
# Procedure, shortened: as §1
# [8] = target: Neu5Ac(a2-3)Gal(b1-3)GlcNAc(b1-2)Man
# Procedure, shortened: as §1
# [9] = target: Neu5Ac(a2-3)Gal(b1-3)GlcNAc(b1-2)Man(a1-3)[GlcNAc(b1-4)][Neu5Ac(a2-3)Gal(b1-3)GlcNAc(b1-2)Man(a1-6)]Man(b1-4)GlcNAc(b1-4)GlcNAc
# Procedure, shortened: as §1
# [10] = target: Neu5Ac(a2-3)Gal(b1-3)GlcNAc(b1-2)Man(a1-3)[Neu5Ac(a2-3)Gal(b1-3)GlcNAc(b1-2)Man(a1-6)]Man(b1-4)GlcNAc(b1-4)GlcNAc
# Procedure, shortened: as §1
# [11] = target: Neu5Ac(a2-3)Gal(b1-3)GlcNAc(b1-2)[Neu5Ac(a2-3)Gal(b1-3)GlcNAc(b1-4)]Man(a1-6)[Neu5Ac(a2-3)Gal(b1-3)GlcNAc(b1-2)Man(a1-3)]Man(b1-4)GlcNAc(b1-4)GlcNAc
# Procedure, shortened: as §1
# [12] = target: Neu5Ac(a2-3)Gal(b1-3)GlcNAc(b1-3)Gal(b1-3)GlcNAc
# Procedure, shortened: as §1
# [13] = target: Neu5Ac(a2-3)Gal(b1-3)GlcNAc(b1-3)Gal(b1-4)GlcNAc
# Procedure, shortened: as §1
# [14] = target: Neu5Ac(a2-3)Gal(b1-3)GlcNAc(b1-3)GalNAc
# Procedure, shortened: as §1
# [15] = target: Neu5Ac(a2-3)Gal(b1-3)GlcNAc(b1-6)GalNAc
# Procedure, shortened: as §1
# [16] = target: Neu5Ac(a2-3)Gal(b1-3)GlcNAc6S
# Procedure, shortened: as §1
# [17] = target: Neu5Ac(a2-3)Gal(b1-3)[Fuc(a1-4)]GlcNAc
# Procedure, shortened: as §1
# [18] = target: Neu5Ac(a2-3)Gal(b1-3)[Fuc(a1-4)]GlcNAc(b1-3)Gal(b1-3)[Fuc(a1-4)]GlcNAc
# Procedure, shortened: as §1
# [19] = target: Neu5Ac(a2-3)Gal(b1-3)[Fuc(a1-4)]GlcNAc(b1-3)Gal(b1-4)[Fuc(a1-3)]GlcNAc
# Procedure, shortened: as §1
# [20] = target: Neu5Ac(a2-3)Gal(b1-3)[GlcNAc(b1-6)]GalNAc
# Procedure, shortened: as §1
# [21] = target: Neu5Ac(a2-3)Gal(b1-3)[Neu5Ac(a2-6)]GalNAc
# Procedure, shortened: as §1
# [22] = target: Neu5Ac(a2-3)Gal(b1-3)[Neu5Ac(a2-6)]GlcNAc(b1-3)[Fuc(a1-3)[Gal(b1-4)]GlcNAc(b1-6)]Gal(b1-4)Glc
# Procedure, shortened: as §1
# [23] = target: Neu5Ac(a2-3)Gal(b1-3)]Neu5Ac(a2-3)Gal(b1-4)]GlcNAc
# Procedure, shortened: as §1
# [24] = target: Neu5Ac(a2-3)Gal(b1-4)Glc
# Procedure, shortened: as §1
# [25] = target: Neu5Ac(a2-3)Gal(b1-4)GlcNAc
# Procedure, shortened: as §1
# [26] = target: Neu5Ac(a2-3)Gal(b1-4)GlcNAc(b1-2)Man
# Procedure, shortened: as §1
# [27] = target: Neu5Ac(a2-3)Gal(b1-4)GlcNAc(b1-2)Man(a1-3)[GlcNAc(b1-4)][Neu5Ac(a2-3)Gal(b1-4)GlcNAc(b1-2)Man(a1-6)]Man(b1-4)GlcNAc(b1-4)GlcNAc
# Procedure, shortened: as §1
# [28] = target: Neu5Ac(a2-3)Gal(b1-4)GlcNAc(b1-2)Man(a1-3)[Neu5Ac(a2-3)Gal(b1-4)GlcNAc(b1-2)Man(a1-6)]Man(b1-4)GlcNAc(b1-4)GlcNAc
# Procedure, shortened: as §1
# [29] = target: Neu5Ac(a2-3)Gal(b1-4)GlcNAc(b1-2)Man(a1-3)[Neu5Ac(a2-3)Gal(b1-4)GlcNAc(b1-2)Man(a1-6)]Man(b1-4)GlcNAc(b1-4)[Fuc(a1-6)]GlcNAc
# Procedure, shortened: as §1
# [30] = target: Neu5Ac(a2-3)Gal(b1-4)GlcNAc(b1-2)Man(a1-3)[Neu5Ac(a2-6)Gal(b1-4)GlcNAc(b1-2)Man(a1-6)]Man(b1-4)GlcNAc(b1-4)GlcNAc
# Procedure, shortened: as §1
# [31] = target: Neu5Ac(a2-3)Gal(b1-4)GlcNAc(b1-2)[Neu5Ac(a2-3)Gal(b1-4)GlcNAc(b1-4)]Man(a1-3)[GlcNAc(b1-4)][Neu5Ac(a2-3)Gal(b1-4)GlcNAc(b1-2)[Neu5Ac(a2-3)Gal(b1-4)GlcNAc(b1-6)]Man(a1-6)]Man(b1-4)GlcNAc(b1-4)GlcNAc
# Procedure, shortened: as §1
# [32] = target: Neu5Ac(a2-3)Gal(b1-4)GlcNAc(b1-2)[Neu5Ac(a2-3)Gal(b1-4)GlcNAc(b1-4)]Man(a1-3)[GlcNAc(b1-4)][Neu5Ac(a2-3)Gal(b1-4)GlcNAc(b1-4)Man(a1-6)]Man(b1-4)GlcNAc(b1-4)GlcNAc
# Procedure, shortened: as §1
# [33] = target: Neu5Ac(a2-3)Gal(b1-4)GlcNAc(b1-2)[Neu5Ac(a2-3)Gal(b1-4)GlcNAc(b1-6)]Man(a1-6)[Neu5Ac(a2-3)Gal(b1-4)GlcNAc(b1-2)Man(a1-3)][GlcNAc(b1-4)]Man(b1-4)GlcNAc(b1-4)GlcNAc
# Procedure, shortened: as §1
# [34] = target: Neu5Ac(a2-3)Gal(b1-4)GlcNAc(b1-3)Gal
# Procedure, shortened: as §1
# [35] = target: Neu5Ac(a2-3)Gal(b1-4)GlcNAc(b1-3)Gal(b1-3)GlcNAc
# Procedure, shortened: as §1
# [36] = target: Neu5Ac(a2-3)Gal(b1-4)GlcNAc(b1-3)Gal(b1-4)GlcNAc
# Procedure, shortened: as §1
# [37] = target: Neu5Ac(a2-3)Gal(b1-4)GlcNAc(b1-3)Gal(b1-4)GlcNAc(b1-2)Man(a1-3)[Neu5Ac(a2-3)Gal(b1-4)GlcNAc(b1-3)Gal(b1-4)GlcNAc(b1-2)Man(a1-6)]Man(b1-4)GlcNAc(b1-4)GlcNAc
# Procedure, shortened: as §1
# [38] = target: Neu5Ac(a2-3)Gal(b1-4)GlcNAc(b1-3)Gal(b1-4)GlcNAc(b1-3)Gal(b1-4)GlcNAc
# Procedure, shortened: as §1
# [39] = target: Neu5Ac(a2-3)Gal(b1-4)GlcNAc(b1-3)Gal(b1-4)GlcNAc(b1-3)Gal(b1-4)GlcNAc(b1-2)Man(a1-3)[Neu5Ac(a2-3)Gal(b1-4)GlcNAc(b1-3)Gal(b1-4)GlcNAc(b1-3)Gal(b1-4)GlcNAc(b1-2)Man(a1-6)]GalNAc
# Procedure, shortened: as §1
# [40] = target: Neu5Ac(a2-3)Gal(b1-4)GlcNAc(b1-3)Gal(b1-4)GlcNAc(b1-3)GalNAc
# Procedure, shortened: as §1
# [41] = target: Neu5Ac(a2-3)Gal(b1-4)GlcNAc(b1-3)Gal(b1-4)GlcNAc(b1-3)[Neu5Ac(a2-3)Gal(b1-4)GlcNAc(b1-3)Gal(b1-4)GlcNAc(b1-6)]GalNAc
# Procedure, shortened: as §1
# [42] = target: Neu5Ac(a2-3)Gal(b1-4)GlcNAc(b1-3)Gal(b1-4)GlcNAc(b1-6)[Gal(b1-3)]GalNAc
# Procedure, shortened: as §1
# [43] = target: Neu5Ac(a2-3)Gal(b1-4)GlcNAc(b1-3)Gal(b1-4)[Fuc(a1-3)]GlcNAc
# Procedure, shortened: as §1
# [44] = target: Neu5Ac(a2-3)Gal(b1-4)GlcNAc(b1-3)GalNAc
# Procedure, shortened: as §1
# [45] = target: Neu5Ac(a2-3)Gal(b1-4)GlcNAc(b1-3)[Neu5Ac(a2-3)Gal(b1-4)GlcNAc(b1-6)]GalNAc
# Procedure, shortened: as §1
binder,measurement,setting,value
Lb MiSSP8 (Laccaria bicolor) (protein) MYFHTLFACATLMLITTAHASPTVINSLDSRKADLNGDVEARHAADWRRDSDWRRDSDWRRDSDWRRDSD,glycan array binding signal (z-score),[1],-0.133
same,glycan array binding signal (z-score),[2],-0.281
same,glycan array binding signal (z-score),[3],-0.619
same,glycan array binding signal (z-score),[4],-0.295
same,glycan array binding signal (z-score),[5],-0.716
same,glycan array binding signal (z-score),[6],-0.433
same,glycan array binding signal (z-score),[7],-0.581
same,glycan array binding signal (z-score),[8],-0.82
same,glycan array binding signal (z-score),[9],-0.488
same,glycan array binding signal (z-score),[10],1.76
same,glycan array binding signal (z-score),[11],-0.026
same,glycan array binding signal (z-score),[12],-0.896
same,glycan array binding signal (z-score),[13],-0.868
same,glycan array binding signal (z-score),[14],-0.82
same,glycan array binding signal (z-score),[15],-0.419
same,glycan array binding signal (z-score),[16],-0.226
same,glycan array binding signal (z-score),[17],-0.73
same,glycan array binding signal (z-score),[18],-0.254
same,glycan array binding signal (z-score),[19],0.754
same,glycan array binding signal (z-score),[20],-0.578
same,glycan array binding signal (z-score),[21],-0.457
same,glycan array binding signal (z-score),[22],-0.012
same,glycan array binding signal (z-score),[23],-0.502
same,glycan array binding signal (z-score),[24],-0.343
same,glycan array binding signal (z-score),[25],-0.002
same,glycan array binding signal (z-score),[26],1.55
same,glycan array binding signal (z-score),[27],-0.523
same,glycan array binding signal (z-score),[28],-0.578
same,glycan array binding signal (z-score),[29],-0.378
same,glycan array binding signal (z-score),[30],1.18
same,glycan array binding signal (z-score),[31],-0.502
same,glycan array binding signal (z-score),[32],-0.171
same,glycan array binding signal (z-score),[33],-0.281
same,glycan array binding signal (z-score),[34],-0.992
same,glycan array binding signal (z-score),[35],-0.958
same,glycan array binding signal (z-score),[36],-0.088
same,glycan array binding signal (z-score),[37],0.071
same,glycan array binding signal (z-score),[38],-0.102
same,glycan array binding signal (z-score),[39],2.06
same,glycan array binding signal (z-score),[40],-0.343
same,glycan array binding signal (z-score),[41],0.664
same,glycan array binding signal (z-score),[42],-0.585
same,glycan array binding signal (z-score),[43],-0.668
same,glycan array binding signal (z-score),[44],-0.122
same,glycan array binding signal (z-score),[45],-0.323

# For convenience, some entries already given.
binder,measurement,setting,value
Lb MiSSP8 (Laccaria bicolor) (protein) MYFHTLFACATLMLITTAHASPTVINSLDSRKADLNGDVEARHAADWRRDSDWRRDSDWRRDSDWRRDSD,glycan array binding signal (z-score),[31],-0.502
same,glycan array binding signal (z-score),[32],-0.171
same,glycan array binding signal (z-score),[33],-0.281
